Results: article doi:10.1101/2020.05.02.073957
Like-named read-outs stand apart in the source and are kept apart here. No constants are given. Whether binding was seen depends on the method and setting. In cells and extracts the contact can be indirect. A yes stands for co-enrichment or nearness to the bait. Other partners may have been found.

Protein sequences, listed by entry. Tags and fused reporters are not part of them.
UniProt P35293: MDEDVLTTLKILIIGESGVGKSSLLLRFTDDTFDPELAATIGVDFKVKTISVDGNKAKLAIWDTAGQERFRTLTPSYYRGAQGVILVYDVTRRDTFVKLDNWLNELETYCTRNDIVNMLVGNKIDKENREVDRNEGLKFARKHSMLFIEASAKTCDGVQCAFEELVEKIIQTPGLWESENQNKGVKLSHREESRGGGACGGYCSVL
UniProt Q9CZW4: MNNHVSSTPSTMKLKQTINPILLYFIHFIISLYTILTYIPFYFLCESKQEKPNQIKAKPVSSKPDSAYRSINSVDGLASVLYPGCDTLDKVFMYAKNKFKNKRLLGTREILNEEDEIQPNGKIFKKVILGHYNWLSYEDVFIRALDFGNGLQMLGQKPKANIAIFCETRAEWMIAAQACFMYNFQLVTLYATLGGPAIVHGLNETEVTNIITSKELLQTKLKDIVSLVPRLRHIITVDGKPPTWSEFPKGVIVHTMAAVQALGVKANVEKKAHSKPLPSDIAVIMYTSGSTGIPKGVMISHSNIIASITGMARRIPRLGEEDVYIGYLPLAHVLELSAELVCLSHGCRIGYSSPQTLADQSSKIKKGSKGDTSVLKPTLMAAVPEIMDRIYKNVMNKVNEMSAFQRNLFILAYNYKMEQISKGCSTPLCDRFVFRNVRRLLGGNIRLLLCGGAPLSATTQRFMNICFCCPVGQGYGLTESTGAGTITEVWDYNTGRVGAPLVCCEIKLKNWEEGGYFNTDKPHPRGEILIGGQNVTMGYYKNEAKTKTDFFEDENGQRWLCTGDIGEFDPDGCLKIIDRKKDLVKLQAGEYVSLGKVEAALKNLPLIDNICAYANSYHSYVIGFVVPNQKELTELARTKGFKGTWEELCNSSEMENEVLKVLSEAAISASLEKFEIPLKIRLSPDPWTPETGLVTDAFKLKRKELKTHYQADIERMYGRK

Columns and labels:
[1] = target: FLAG-Rab18 (overexpressed in C2C12 cells) (mouse) (UniProt P35293); assay: affinity purification with mass spectrometry
[2] = target: FLAG-Rab18 (overexpressed in C2C12 cells) (mouse) (UniProt P35293); assay: affinity purification with mass spectrometry; remark: listed apart in the source

Molecule | binding [1] | binding [2]
acyl-CoA synthetase long-chain family member 3 (ACSL3), endogenous in C2C12 lipid droplets (from UniProt Q9CZW4 1-720) (enzyme) | binds | 
perilipin 2 (PLIN2), endogenous in C2C12 lipid droplets (protein, UniProt P43883 1-425) MAAAVVDPQQSVVMRVANLPLVSSTYDLVSSAYVSTKDQYPYLRSVCEMAEKGVKTVTSAAMTSALPIIQKLEPQIAVANTYACKGLDRMEERLPILNQPTSEIVASARGAVTGAKDVVTTTMAGAKDSVASTVSGVVDKTKGAVTGSVERTKSVVNGSINTVLGMVQFMNSGVDNAITKSELLVDQYFPLTQEELEMEAKKVEGFDMVQKPSNYERLESLSTKLCSRAYHQALSRVKEAKQKSQETISQLHSTVHLIEFARKNMHSANQKIQGAQDKLYVSWVEWKRSIGYDDTDESHCVEHIESRTLAIARNLTQQLQTTCQTVLVNAQGLPQNIQDQAKHLGVMAGDIYSVFRNAASFKEVSDGVLTSSKGQLQKMKESLDEVMDYFVNNTPLNWLVGPFYPQSTEVNKASLKVQQSEVKAQ |  | binds
